# Literature values in article PMC5704914 (Biochemistry, 2017).
# System: L-type channel
# Settings: ref [71], [72]; cited from earlier work
structure (smiles),measurement,value
COC(=O)C1=C(C)NC(C)=C(C(=O)OC)C1c1ccccc1[N+](=O)[O-] [nifedipine],behavioral effect,antidepressant
